Assay results published in patent publication US11286288B2 (VALLAURIX PTE. LTD., priority 2015, dated 2022).

Experiment: peptide synthesis
Settings: whole synthesis

Substance	final HPLC purity
(CH3)3N—(CH2)3—CO-Nle-Glu-His-D-Phe-homoArg-Trp-NH2	98.2%
(C2H5)3N—CH2—CO-Nle-Glu-His-D-Phe-Arg-Trp-NH2	99%
(CH3)3N—(CH2)3—CO-Nle-Glu-His-D-Phe-Arg-Trp-NH2	98.9%
(C2H5)3N—CH2—CO-Nle-Glu-His-D-Phe-homoArg-Trp-NH2	99.4%
